No constants are given. Whether binding was seen depends on the method and setting. Binding seen in cells or lysates may run through a third protein. Here binding means that the protein was enriched with, or labelled near, the bait; the list need not be complete. Values belong to the molecule of their own block, whether it stands above or below them.
How the values were obtained:
[1] = biological target: PfPanK2-GFP (Plasmodium falciparum) (UniProt Q8IL92); experiment: affinity purification with mass spectrometry; GFP-Trap immunoprecipitation from lysates of P. falciparum PfPanK1-GFP and PfPanK2-GFP lines; untagged GFP and wild-type 3D7 lines as negative controls; two replicates
[2] = biological target: PfPanK1-GFP (Plasmodium falciparum) (UniProt Q8ILP4); experiment: as above

Protein sequences, listed by entry. Tags and fused reporters are not part of them. Lines headed by an entry give the natural chain unless they say otherwise; changes in a name come on top.
UniProt Q8IL92: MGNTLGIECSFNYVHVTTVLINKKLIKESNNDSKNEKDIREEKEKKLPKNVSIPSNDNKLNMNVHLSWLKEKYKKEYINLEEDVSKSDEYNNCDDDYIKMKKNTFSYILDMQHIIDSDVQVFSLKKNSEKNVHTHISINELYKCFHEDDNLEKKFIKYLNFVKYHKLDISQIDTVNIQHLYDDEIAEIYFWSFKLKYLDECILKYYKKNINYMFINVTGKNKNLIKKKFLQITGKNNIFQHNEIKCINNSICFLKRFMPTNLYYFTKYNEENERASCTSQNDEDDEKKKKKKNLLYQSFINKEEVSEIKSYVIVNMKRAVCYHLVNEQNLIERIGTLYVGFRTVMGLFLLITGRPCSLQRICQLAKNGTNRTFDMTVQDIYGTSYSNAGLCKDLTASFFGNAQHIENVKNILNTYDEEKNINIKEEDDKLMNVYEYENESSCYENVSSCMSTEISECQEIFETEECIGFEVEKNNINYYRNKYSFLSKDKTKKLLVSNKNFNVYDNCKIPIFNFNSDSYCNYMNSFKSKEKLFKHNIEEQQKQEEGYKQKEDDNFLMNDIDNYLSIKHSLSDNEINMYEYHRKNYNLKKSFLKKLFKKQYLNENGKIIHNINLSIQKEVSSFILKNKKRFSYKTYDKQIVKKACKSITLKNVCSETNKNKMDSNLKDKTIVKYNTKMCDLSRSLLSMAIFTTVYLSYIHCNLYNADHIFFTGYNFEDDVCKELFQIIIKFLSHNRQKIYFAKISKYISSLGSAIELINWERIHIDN
UniProt Q8ILP4: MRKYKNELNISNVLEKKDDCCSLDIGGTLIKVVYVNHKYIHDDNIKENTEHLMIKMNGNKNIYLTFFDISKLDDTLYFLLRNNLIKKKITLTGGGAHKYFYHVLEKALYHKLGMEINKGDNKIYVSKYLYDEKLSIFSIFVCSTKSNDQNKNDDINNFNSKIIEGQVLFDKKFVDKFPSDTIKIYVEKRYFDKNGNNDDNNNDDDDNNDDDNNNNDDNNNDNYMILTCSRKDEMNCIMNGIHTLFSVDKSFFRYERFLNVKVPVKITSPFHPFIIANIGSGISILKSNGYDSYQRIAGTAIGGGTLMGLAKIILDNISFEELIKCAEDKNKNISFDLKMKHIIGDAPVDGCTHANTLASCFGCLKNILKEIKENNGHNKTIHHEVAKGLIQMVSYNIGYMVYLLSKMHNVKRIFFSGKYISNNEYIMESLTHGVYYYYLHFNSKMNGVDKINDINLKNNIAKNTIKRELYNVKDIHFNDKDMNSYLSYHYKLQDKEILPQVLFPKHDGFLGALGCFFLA

- binding [1]: binds
Molecule: PfPanK1 (from UniProt Q8ILP4) (enzyme)

- binding [2]: binds
Molecule: PfPanK2 (from UniProt Q8IL92) (enzyme)

- binding [1]: binds
- binding [2]: binds
B1: Pf14-3-3I (protein, UniProt C0H4V6 1-262)
chain: MATSEELKQLRCDCTYRSKLAEQAERYDEMADAMRTLVEQCVNNDKDELTVEERNLLSVAYKNAVGARRASWRIISSVEQKEMSKANVHNKNVAATYRKKVEEELNNICQDILNLLTKKLIPNTSESESKVFYYKMKGDYYRYISEFSCDEGKKEASNCAQEAYQKATDIAENELPSTHPIRLGLALNYSVFFYEILNQPHQACEMAKRAFDDAITEFDNVSEDSYKDSTLIMQLLRDNLTLWTSDLQGDQTEEKSKDEGLE

— PMC8366970
